Source: patent publication US20120045393A1 (priority 2009, published 2012)
Some results were stated once for a whole list of compounds, not compound by compound. Some ranges recur; such a range may be that of the whole group of compounds. Non-standard residues stand in square brackets, D forms with d. Residues, ends and D or L forms follow the SMILES beside them. *: point of attachment. NH(CH2)2O(CH2)2NHDOTA = O=C(O)CN1CCN(CC(=O)O)CCN(CC(=O)NCCOCCN*)CCN(CC(=O)O)CC1; Bpa = N[C@@H](Cc1ccc(C(=O)c2ccccc2)cc1)C(=O)O; azaGly = NNC(=O)O; Sar = CNCC(=O)O

Test system: LHRH binding sites on human ovarian cancer cells (EFO-27)
Conditions: for EC50: EFO-27 cells, competition with [125I-Tyr8]BRU-2477, 90 min
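Also: Cell-associated radioactivity on confluent EFO-27 monolayers in 96-well plates, measured by microplate scintillation counting.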

## CNCC(=O)N[C@@H](CCCNC(=N)N)C(=O)N[C@@H](Cc1c[nH]c2ccccc12)C(=O)N[C@@H](CO)C(=O)N[C@@H](Cc1c[nH]cn1)C(=O)N[C@H](CCCNC(=N)N)C(=O)N[C@@H](Cc1c[nH]c2ccccc12)C(=O)N[C@@H](Cc1ccc(C(=O)c2ccccc2)cc1)C(=O)N1CCC[C@H]1C(=O)N1CCC[C@H]1C(=O)NNC(=O)NCCOCCNC(=O)CN1CCN(CC(=O)O)CCN(CC(=O)O)CCN(CC(=O)O)CC1 [BRU-3073] (H-[Sar]RWSH[dR]W[Bpa]PP[azaGly]-{NH(CH2)2O(CH2)2NHDOTA}; N-terminus assumed)
  EC50: 0.59 to 1 µM

## CNCC(=O)N[C@@H](Cc1c[nH]cn1)C(=O)N[C@@H](Cc1c[nH]c2ccccc12)C(=O)N[C@@H](CO)C(=O)N[C@@H](Cc1c[nH]cn1)C(=O)N[C@H](CCCNC(=N)N)C(=O)N[C@@H](Cc1c[nH]c2ccccc12)C(=O)N[C@@H](Cc1ccc(C(=O)c2ccccc2)cc1)C(=O)N1CCC[C@H]1C(=O)NNC(=O)CN1CCN(CC(=O)O)CCN(CC(=O)O)CCN(CC(=O)O)CC1 [BRU-3074]
  binding reduced, fold compared to peptide 18: 5-6 fold

## CNCC(=O)N[C@@H](CCCNC(=N)N)C(=O)N[C@@H](Cc1c[nH]c2ccccc12)C(=O)N[C@@H](CO)C(=O)N[C@@H](Cc1c[nH]cn1)C(=O)N[C@H](CCCNC(=N)N)C(=O)N[C@@H](Cc1c[nH]c2ccccc12)C(=O)N[C@@H](Cc1ccc(C(=O)c2ccccc2)cc1)C(=O)N1CCC[C@H]1C(=O)NCCCNC(=O)CN1CCN(CC(=O)O)CCN(CC(=O)O)CCN(CC(=O)O)CC1 [BRU-3076]
  EC50: 0.59 to 1 µM

## CNCC(=O)N[C@@H](CCCNC(=N)N)C(=O)N[C@@H](Cc1c[nH]c2ccccc12)C(=O)N[C@@H](CO)C(=O)N[C@@H](Cc1c[nH]cn1)C(=O)N[C@H](CCCNC(=N)N)C(=O)N[C@@H](Cc1c[nH]c2ccccc12)C(=O)N[C@@H](Cc1ccc(C(=O)c2ccccc2)cc1)C(=O)N1CCC[C@H]1C(=O)N(C)CCCNC(=O)CN1CCN(CC(=O)O)CCN(CC(=O)O)CCN(CC(=O)O)CC1 [BRU-3086]
  EC50: 0.59 to 1 µM
  binding reduced, fold compared to peptide 18: 5-6 fold
